Source: PubChem BioAssay AID2685 (National Center for Advancing Translational Sciences (NCATS), 2010)
Some of the results follow. Further columns of the screen follow, without active or inactive calls. The list favours compounds with an active or inconclusive main result. The note in brackets gives the kind of curve behind each potency; many fits are weak.

Experiment: qHTS Assay for Lipid Storage Modulators in Drosophila S3 Cells;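 for cell number change: cells counted by Cell Tracker Red CMTPX staining in the red channel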
Conditions: BODIPY lipid droplet fluorescence, 18-24 h; for cell number change: measured here: cell count max response, cells fed with added oleic acid
How it was run: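 Laser-scanning cytometry quantifies lipid droplet accumulation (500–530 nm total intensity; droplet/cell object ratio) in oleic acid-fed (400 uM added) Drosophila S3 cells treated with a concentration series. 20 uM Triacsin C defined 100% inhibition.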

[1] = measured here: cell number channel AC50, cells fed with added oleic acid
[2] = measured here: lipid fluorescence (Fed channel) AC50, cells fed with added oleic acid

COc1ccccc1-c1ocnc1C(=O)Nc1ccc(N2CCOCC2)cc1N1CCOCC1
cell number change: -6.05% | AC50 [1]: 4.11 µM [falling, single point] | AC50 [2]: 29.1 µM [falling, single point]

Cn1c(=O)[nH]c(=O)c2[nH]c(NCCCN3CCOCC3)nc21
cell number change: -35.4% | AC50 [1]: 0.231 µM [falling, full curve, poor fit] | AC50 [2]: 1.16 µM [falling, full curve]

O=C(O)c1c(Cl)c(Cl)c(Cl)c(Cl)c1C(=O)N1CCCC1
cell number change: -31.6% | AC50 [1]: 29.1 µM [falling, single point] | AC50 [2]: 20.6 µM [falling, single point]

Cc1cc(C)nc(Nc2cccc3ccccc23)n1
cell number change: 11.6% | AC50 [2]: 29.1 µM [rising, single point]

CCOC(=O)C1=C(C)N(Cc2ccc(C(=O)O)cc2)C(=O)NC1c1ccc([N+](=O)[O-])cc1 (stereo not drawn)
cell number change: 1.66% | AC50 [2]: 8.2 µM [falling, partial curve]

COC(=O)c1sc(S(=O)(=O)Nc2ccc3cn[nH]c3c2)c(C(=O)OC)c1C
cell number change: 234%

Cc1ccc(C(=O)N2CCN(C)CC2)cc1S(=O)(=O)N1CCCCC1
cell number change: -2.42%

COc1ccc(OC)c(NC(=O)CSc2ncnc3c2cnn3-c2ccccc2Cl)c1
cell number change: -61.3% | AC50 [1]: 2.31 µM [falling, full curve] | AC50 [2]: 2.31 µM [falling, full curve]

CCc1nc(SCC(=O)Nc2cc(C)on2)n[nH]1
cell number change: 17.2% | AC50 [2]: 32.6 µM [rising, partial curve]

COc1cc(CN2CCN(c3ccccc3F)CC2)c([N+](=O)[O-])cc1OC
cell number change: 15.7% | AC50 [1]: 0.517 µM [rising, full curve, poor fit] | AC50 [2]: 20.6 µM [rising, single point]

Cc1oc2c(cc(NS(=O)(=O)c3ccc(C(C)C)cc3)c3ccccc32)c1C(=O)O
cell number change: 3.75% | AC50 [2]: 0.164 µM [falling, single point]

CN(C)S(=O)(=O)c1cccc(C(=O)Nc2ccc(S(=O)(=O)N3CCCC3)cc2)c1
AC50 [2]: 5.8 µM [rising, single point]

CSc1cccc(NC(=O)CCc2ccccc2)c1
cell number change: 9.27%

Cc1cccc(Oc2nc(CN3CCOCC3)nc3sc4c(c23)CCCC4)c1
AC50 [2]: 18.4 µM [rising, single point]

O=C(COC(=O)CCCNC(=O)c1ccc(Cl)cc1)NC1CC1
cell number change: 0.452% | AC50 [2]: 0.0291 µM [rising, full curve, poor fit]

O=S(=O)(c1cccs1)N1CN(Cc2ccccc2)c2nc3ccccc3nc21
cell number change: -13% | AC50 [2]: 7.31 µM [falling, partial curve, poor fit]

COC(=O)C1=C(O)/C(=C\c2ccc(CNC(=O)C(=O)Nc3ccc(C)cc3)o2)N=C1C
AC50 [2]: 5.17 µM [rising, partial curve, poor fit]

Cc1ccc(-c2cc(C(=O)N3CCOCC3)no2)cc1
cell number change: 7.89% | AC50 [2]: 1.58 µM [falling, partial curve]

COc1cccc(NC(=O)C(Sc2nnc(Nc3ccccc3C)s2)c2ccccc2)c1 (stereo not drawn)
cell number change: 0.331%

COc1cc(-c2nc3cnccn3c2Nc2ccc(C)cc2)ccc1O
cell number change: -19.2%

O=C(O)c1ccccc1P(=O)(c1ccccc1)c1ccccc1
cell number change: -28.1% | AC50 [2]: 18.4 µM [falling, single point]

COc1ccc(NC(=O)CCS(=O)(=O)c2ccc3c(c2)NC(=O)C(C)S3)cc1OC (stereo not drawn)
cell number change: 26.9%

CC(C)(C)NC(=O)NC(=O)COC(=O)c1cccc(S(=O)(=O)N2CCCCC2)c1
cell number change: -41.4% | AC50 [1]: 29.1 µM [falling, partial curve] | AC50 [2]: 29.1 µM [falling, partial curve, poor fit]

COc1ccccc1NS(=O)(=O)c1ccc(Cl)c(NC(=O)CN2C(=O)c3ccccc3C2=O)c1
cell number change: 6.2% | AC50 [2]: 4.11 µM [rising, full curve, poor fit]

Cc1cc2c(cc1S(=O)(=O)N1CCN(c3cccc(C)c3C)CC1)OCC(=O)N2
cell number change: -14.4% | AC50 [2]: 6.51 µM [falling, single point]

CCOC(=O)C1=C(CN2CCc3ccccc32)NC(=O)NC1c1cccc([N+](=O)[O-])c1 (stereo not drawn)
cell number change: 90.9% | AC50 [1]: 11.6 µM [rising, partial curve] | AC50 [2]: 11.6 µM [rising, partial curve]

COc1ccccc1OCc1ccc(C(=O)NCC2CCCO2)cc1 (stereo not drawn)
cell number change: -3.48% | AC50 [2]: 0.00461 µM [falling, full curve, poor fit]

CCn1c(N2CCN(C(=S)NCCc3ccccc3)CC2)nc2ccccc21
cell number change: -41% | AC50 [1]: 16.4 µM [falling, single point] | AC50 [2]: 23.1 µM [falling, partial curve]

O=C1c2cccnc2C(=O)N1CNc1ccc(Cl)cc1
cell number change: -39.8% | AC50 [1]: 29.1 µM [falling, single point]

COCCNC(=O)CCC1CCN(C/C=C/c2ccccc2OC)CC1
cell number change: -13.2% | AC50 [2]: 4.11 µM [falling, single point]

C/C(=N\NC(=O)c1cccc(S(=O)(=O)N2CCCC2)c1)c1ccncc1
cell number change: 5.12% | AC50 [2]: 14.6 µM [rising, partial curve]

Cc1ccc(NC(=O)CSc2nnc(CCNC(=O)OC(C)(C)C)o2)c(C)c1
cell number change: 50.2% | AC50 [1]: 0.13 µM [rising, full curve] | AC50 [2]: 0.58 µM [rising, full curve]

COC(=O)CN1C(=O)C2(C(C#N)=C(N)Oc3n[nH]c(-c4cccs4)c32)c2ccccc21 (stereo not drawn)
AC50 [1]: 0.517 µM [rising, full curve, poor fit] | AC50 [2]: 0.103 µM [falling, full curve, poor fit]

Cc1ccc(S(=O)(=O)Nc2cc(C)cn(Cc3ccccc3)c2=O)cc1
cell number change: 1.32%

Cc1ccc(C(=O)CSc2nnc(N)s2)c(C)c1
AC50 [1]: 0.116 µM [falling, full curve, poor fit] | AC50 [2]: 0.116 µM [falling, full curve, poor fit]

CN(Cc1nc2ccccc2c(=O)[nH]1)c1ccccc1
cell number change: 9.37% | AC50 [2]: 23.1 µM [rising, partial curve]

CC1C(=O)N(c2ccc(S(=O)(=O)N(C)C)cc2)C1(/C=C/c1ccccc1)C(=O)NC1CCCC1 (stereo not drawn)
cell number change: -11.1% | AC50 [1]: 4.11 µM [rising, partial curve]

COc1ccc(-n2nnc3c(SCC(=O)NCC4CCCO4)ncnc32)cc1 (stereo not drawn)
cell number change: -35.4% | AC50 [1]: 18.4 µM [falling, single point] | AC50 [2]: 29.1 µM [falling, single point]

COC(=O)c1ccc(N2CCC(c3cc(-c4ccc(OC)cc4)n[nH]3)CC2)c([N+](=O)[O-])c1
cell number change: -13% | AC50 [2]: 16.4 µM [falling, single point]

Cc1cc(F)ccc1NC(=O)CCc1ccc(S(=O)(=O)N2CCOCC2)cc1
cell number change: -16% | AC50 [2]: 6.51 µM [rising, single point]

CCOC(=O)N1CCN(C(=O)c2ccc(C)c(S(=O)(=O)Nc3cccc(C)c3C)c2)CC1
cell number change: -3.85% | AC50 [2]: 0.731 µM [rising, single point]

O=C1N=c2ccccc2=C1c1sc(NS(=O)(=O)Cc2ccccc2)nc1O
cell number change: 19.4% | AC50 [2]: 9.2 µM [rising, partial curve]

CC(C)[C@H](NC(=O)[C@@H]1Cc2ccccc2CN1)C(=O)NC1CCCCC1
cell number change: 1.53%

O=C(Cc1cccs1)NCc1ccc(Cl)cc1Cl
cell number change: 3.38% | AC50 [2]: 20.6 µM [falling, single point]

COc1ccc(C(=O)c2sc3nc(C)cc(-c4cccs4)c3c2N)cc1OC
cell number change: 22.5% | AC50 [1]: 3.26 µM [rising, full curve, poor fit] | AC50 [2]: 0.00461 µM [falling, full curve, poor fit]

CN(C)C(=O)Cn1cc(S(=O)(=O)Cc2ccccc2)c2ccccc21
AC50 [2]: 32.6 µM [falling, partial curve, poor fit]

O=C(CN1C(=O)/C(=C/c2ccc(F)cc2)SC1=S)N1CCN(CCc2ccccn2)CC1
cell number change: -24.4%

Fc1ccc(COc2ccccc2-c2ccnc3ncnn23)cc1
cell number change: 20% | AC50 [2]: 1.16 µM [rising, single point]

COCCOC(=O)C1=C(C)OC(N)=C(C#N)C1c1ccc2c(c1)OCO2 (stereo not drawn)
cell number change: 112% | AC50 [1]: 3.66 µM [rising, full curve] | AC50 [2]: 29.1 µM [rising, partial curve]

O=C1CC(c2ccc(F)cc2)Cc2nc(NCc3ccco3)ncc21 (stereo not drawn)
cell number change: -19% | AC50 [1]: 0.116 µM [falling, single point]

CCSc1cc(N2CCOCC2)nc(-c2ccccc2)n1
cell number change: 22.7% | AC50 [2]: 9.2 µM [rising, partial curve]

CC(C)(C)c1ccc(Cn2c(=O)cnc3ccccc32)cc1
cell number change: -25% | AC50 [2]: 29.1 µM [rising, single point]

O=C(O)Cn1c(CCS(=O)(=O)c2ccc(Br)cc2)nc2ccccc21
cell number change: -16.1% | AC50 [2]: 29.1 µM [falling, single point]

O=C1C2C3C=CC(C3)C2C(=O)N1/N=C/c1cn(Cc2ccccc2)c2ccccc12 (stereo not drawn)
cell number change: -0.203%

O=C(/C=C/c1ccccc1[N+](=O)[O-])N1CCCCC1
cell number change: 2.61%

NS(=O)(=O)c1ccc(Nc2ccc3cc(S(=O)(=O)N4CCCCC4)ccc3n2)cc1
cell number change: -51.3% | AC50 [1]: 29.1 µM [falling, single point] | AC50 [2]: 29.1 µM [falling, single point]

Cc1ccccc1-n1c(C)nnc1SCC(=O)N(C)C1CCS(=O)(=O)C1 (stereo not drawn)
cell number change: 52% | AC50 [1]: 29.1 µM [rising, single point] | AC50 [2]: 2.59 µM [rising, full curve]
